Source: ChEMBL document CHEMBL3988442, “University of Dundee, Small-Polar-MMV Screening Library” (2021).

T. brucei: 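Whole-parasite assay of Trypanosoma brucei over 72 hours; the read-out is not stated. Concentration: 30 µM. The record gives no direction; compounds that gave an IC50 in retests scored well above the rest, so higher reads as stronger inhibition. Values scatter widely below zero; nearly all retest evidence comes from the higher of the two concentrations used. About 64,000 compounds were tested under these conditions; 1.5% (about 940) showed 50% or more at least once.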
Toxoplasma: 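Assay of Toxoplasma gondii numbers, read through their beta-galactosidase reporter with a colour substrate. Tested at 10 µM. Higher reads as fewer parasites (inferred from which compounds were picked for retests). Size under these conditions: about 67,000 compounds, about 260 of them at 50% or above in at least one test.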

Each number is a percent effect as filed. The record does not define 0% and 100%; most values in the screen are far below 50% and negative numbers occur (in some assays of this library far below -100). This is an unselected part of the compounds tested. A dash means the value is not listed here; it may have been measured.

Compound,T. brucei,Toxoplasma
Cc1nc(C(=O)N2CCCC(c3nc(C(C)C)cs3)C2)c[nH]1 (centres undefined),4.569,-14.65
CCS(=O)(=O)N1CCC2(CC1)CN(c1cncnc1)C(=O)CO2,0.02592,-5.081
Cc1c(C(C)Nc2ncnc3sccc23)cnn1C (centres undefined),-6.125,4.139
COc1cc(CN(C)C(=O)NCCC(=O)NC2CCCC2)ccc1SC,-16.72,20.61
CC(C)N1CCC(C(=O)N2CCCN(c3ccccc3)CC2)CC1,10.76,-5.829
c1cc(CN(CCCn2ccnc2)Cc2ccoc2)ccn1,7.089,5.526
CN(CC(N)=O)C(=O)c1cnc(-c2ccc(Cl)s2)s1,-12.62,3.071
Cc1ccccc1OCC1CCCN(C(=O)CNC(=O)N(C)C)C1 (centres undefined),-24.44,-0.5945
O=C(NCC1CCC1)c1ccnc(-n2ccnc2)c1,-,22.03
COc1ccc(CCC(=O)NCCC2CCCO2)cc1Br (centres undefined),-29.55,9.38
CC(CO)NC(=O)c1ccc2[nH]/c(=N\S(C)(=O)=O)sc2c1 (centres undefined),22.18,-
O=C(Nc1ccc2c(ccn2CCN2CCOCC2)c1)c1ccncc1,-12.02,4.637
O=C(c1ccncc1)N(CCO)Cc1cc(Br)ccc1F,2.163,15.62
O=C(CN1CCNC1=O)NCc1ccc2sccc2c1,-,-20.03
FC(F)(F)Oc1cccc(CNCc2ccc(-n3cncn3)nc2)c1,-109.1,8.846
O=C(O)C(F)(F)F.[H][C@@]12CN(C(=O)c3occc3C)C[C@@]1([H])N(Cc1cccnc1)C(=O)CO2,1.509,-5.543
CC(CCN1CCC(n2cc(CCO)nn2)CC1)c1ccccc1 (centres undefined),0.05291,-2.086
COCc1nc(Cn2c(C)cc(C(F)(F)F)cc2=O)no1,-4.412,-13.32
Cc1ccc(N2CCCC3(COCCN(c4ncccn4)C3)C2)nn1.O=C(O)C(F)(F)F (centres undefined),-24.2,-2.364
COCCN1CCC2(CC1)CN(C(=O)C1CC1)c1ccc(F)cc12.O=C(O)C(F)(F)F,-20.48,-0.1829
CCOCc1nc2c(c(N3CCCn4nc(C)cc4C3)n1)CCNCC2,-31.74,8.448
O=C1CCN(Cc2cnc3c(-c4ccccc4)cnn3c2)CCN1,-93.37,9.521
COCCCNC(=O)CN1CCSC(c2ccccc2)C1 (centres undefined),-19.65,-27.53
Cc1csc(N2CCN(C(=O)c3c(C)oc(C)c3C)CC2)n1,1.255,-8.519
Cc1ccc(CNCc2ccc(N3CCC(CO)CC3)nc2)c(C)c1.Cl,14.18,-4.463
[H][C@@]12C[C@H](C(=O)N3CCCC3)[C@@]([H])(CN(S(=O)(=O)CCC)C1)O2,-3.417,-3.661
Cc1nnc(NC(=O)NCc2ccc(N3CCOCC3)nc2)s1,-,0.2443
FC(F)(F)C1CCc2nnc(CNCc3ccsc3)n2C1 (centres undefined),-1.45,2.392
COCC1Cn2nnc(-c3cnn(C)c3)c2CN1Cc1ccc(C)o1 (centres undefined),-7.135,1.199
Cc1ccc(SCC2CNc3nc4ccccc4c(=O)n32)c(C)c1 (centres undefined),-8.683,3.485
C[C@@H]1CN(c2cc(N3CCC(O)CC3)ncn2)C[C@@]1(O)C1CCC1,-9.953,4.427
CN(C)C(=O)COCc1nn(C)c2c1CCN(Cc1ccco1)C2.O=C(O)C(F)(F)F,-80.86,-1.366
CC(CS(C)(=O)=O)N(C(=O)c1ccc(Cl)s1)C1CC1 (centres undefined),-6.618,-4.324
COc1cncc(N2CCN(Cc3ccco3)CC2)n1,-13.44,-19.09
CC(C)Oc1cccc(F)c1C(C(=O)O)N(C)Cc1ccon1 (centres undefined),3.913,18.97
COc1cccc(CNc2cc(N3CCCC3CO)ncn2)n1 (centres undefined),-7.008,-13.72
CN(Cc1ccc(Cl)s1)C(=O)Cn1nc(-c2ccc(F)cc2)oc1=O,-29.11,13.86
Brc1cccc(-c2noc(C3COCCO3)n2)c1 (centres undefined),-24.4,-2.247
CC(=O)N1CCOC(c2c(C(=O)NC(C)(C)C)sc3ccccc23)C1 (centres undefined),-,7.558
O=C(O)C(F)(F)F.O=C(O)C(F)(F)F.[H][C@@]12CCN(Cc3ccncc3)C(=O)[C@@]1([H])CN(Cc1ccc(C)s1)C2,5.561,-0.1849
CSCC(C)N(C)C(=O)CN1CCN(c2ccccn2)CC1 (centres undefined),-57.26,-13.41
O=C1CC(c2ccccc2)C2(CCN(Cc3ccccn3)CC2)N1 (centres undefined),-22,4.541
Cc1cc(C)n(C2CCCN(C(=O)CCOc3ccccc3F)C2)n1 (centres undefined),-,-23.97
Cc1cnn(CCNCc2ccc(OCc3noc(C)n3)cc2)c1,24.73,-54.53
CN(Cc1cnn(C)c1)C(=O)C1CCCN1Cc1ccccn1 (centres undefined),-9.648,-16.15
OC1(c2cn(CC3CCN(C4CCSC4)CC3)nn2)CCCC1 (centres undefined),-6.382,4.822
O=C(NC1CC1)c1cc(C(F)(F)F)cc(C(F)(F)F)n1,-,9.838
C=Cn1cc(CN2CCC(c3ncc(Cl)cc3S(C)(=O)=O)CC2)c(C)n1,-8.705,-1.356
Cc1nc(CN2CCCC(CCc3ccccc3C(F)(F)F)C2)no1 (centres undefined),87.44,4.632
CCc1nc(-c2noc3ccc(C(=O)NCCN(C)C)cc23)co1,5.145,6.714
CC(C)c1nnc(CN2CCN(C(C)c3nc(C4CC4)no3)CC2)o1 (centres undefined),-,0.03339
Cc1oc(C(=O)Nc2cccc(Cl)c2C)cc1S(N)(=O)=O,-14.68,-7.985
CNC(=O)CC1CCN(Cc2nc(-c3cccc(Cl)c3)oc2C)CC1,13.26,-1.269
CC(C)N(C)CCCNC(=O)c1cnn(C(C)C)c1C(F)(F)F,-43.09,5.869
Cc1ccccc1CN1CCN(C(=O)c2cnc(C3CC3)[nH]c2=O)CC1,-33.49,15.79
Cc1nc(CCNC(=O)C2CC(=O)N(C(C)(C)C)C2)sc1Cl (centres undefined),-88.36,-13.55
O=C(c1ccc(-n2cnnc2)cc1)N1CCC(Nc2cccnn2)CC1,-5.581,-0.4354
CCOc1ccc(CNCc2cccnc2N(C)C)cc1,-5.945,-

The first 3 entries again:

{"compound": "Cc1nc(C(=O)N2CCCC(c3nc(C(C)C)cs3)C2)c[nH]1", "stereo": "centres undefined", "T. brucei": 4.569, "Toxoplasma": -14.65}
{"compound": "CCS(=O)(=O)N1CCC2(CC1)CN(c1cncnc1)C(=O)CO2", "T. brucei": 0.02592, "Toxoplasma": -5.081}
{"compound": "Cc1c(C(C)Nc2ncnc3sccc23)cnn1C", "stereo": "centres undefined", "T. brucei": -6.125, "Toxoplasma": 4.139}